Results are given in words; binding and its absence hold for the method and conditions named. Some results given as binding are weak or reduced against the parent protein; the word gives no strength.
Biological target: human CGRP receptor extracellular domain (ECD) (human) (UniProt Q16602)
Assay: yeast-displayed Fab binding screens

By UniProt entry, the sequences of proteins in these tests, tags left out. Where a name states a change or a piece, a line headed by the entry shows the natural chain unless it says otherwise.
UniProt Q16602: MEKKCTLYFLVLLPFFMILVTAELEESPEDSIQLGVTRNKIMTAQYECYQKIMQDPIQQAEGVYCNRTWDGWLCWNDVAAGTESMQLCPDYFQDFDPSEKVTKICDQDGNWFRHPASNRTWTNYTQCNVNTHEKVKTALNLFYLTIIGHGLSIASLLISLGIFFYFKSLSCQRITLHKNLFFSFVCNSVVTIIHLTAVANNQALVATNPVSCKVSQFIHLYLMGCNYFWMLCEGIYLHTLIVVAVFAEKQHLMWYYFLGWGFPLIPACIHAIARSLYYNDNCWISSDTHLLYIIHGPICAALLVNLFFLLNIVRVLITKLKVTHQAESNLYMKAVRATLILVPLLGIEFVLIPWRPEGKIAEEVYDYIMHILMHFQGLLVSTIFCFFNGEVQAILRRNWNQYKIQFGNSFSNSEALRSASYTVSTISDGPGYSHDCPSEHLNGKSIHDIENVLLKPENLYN

binding | Binder
binds | anti-CGRP receptor variant 13, yeast-displayed Fab (Fab, V domains shown) VH: QVQLVESGGGVVQPGRSLRLSCAASGFTFSSFGMHWVRQAPGKGLEWVAVISFDGSIKYSVDSVKGRFTISRDNSKNTLFLQMNSLRAEDTAVYYCARDRLNYYESSGYYHYKYYGMAVWGQGTTVTVSS VL: QSVLTQPPSVSAAPGQKVTISCSGSRSNIGRRTVSWYQQLPGTAPKLLIYDNNKRPSGIPDRFSGSKSGTSATLGITGLQTGDEADYYCGTWDSRLSAVVFGGGTKLTVLG
binds | anti-CGRP receptor variant 15, yeast-displayed Fab (Fab, V domains shown) VH: QVQLVESGGGVVQPGRSLRLSCAASGFTFSSFGMHWVRQAPGKGLEWVAVISFDGSIKYSVDSVKGRFTISRDNSKNTLFLQMNSLRAEDTAVYYCARDRLNYYESSGYYHYKYYGMAVWGQGTTVTVSS VL: QSVLTQPPSVSAAPGQKVTISCSGSSSNIGNNYVSWYQQLPGTAPKLLIYDNNKRPSGIPDRFSGSKSGTSATLGITGLQTGDEADYYCGTWDWWRKAVIFGGGTKLTVLG
binds | anti-CGRP receptor variant 12, yeast-displayed Fab (Fab, V domains shown) VH: QVQLVESGGGVVQPGRSLRLSCAASGFTFSSFGMHWVRQAPGKGLEWVAVISFDGSIKYSVDSVKGRFTISRDNSKNTLFLQMNSLRAEDTAVYYCARDRLNYYESSGYYHYKYYGMAVWGQGTTVTVSS VL: QSVLTQPPSVSAAPGQKVTISCSGSRSNIGRYSVSWYQQLPGTAPKLLIYDNRYRAQGIPDRFSGSKSGTSATLGITGLQTGDEADYYCGTWDWATTSVVFGGGTKLTVLG
binds | anti-CGRP receptor variant 14, yeast-displayed Fab (Fab, V domains shown) VH: QVQLVESGGGVVQPGRSLRLSCAASGFTFSSFGMHWVRQAPGKGLEWVAVISFDGSIKYSVDSVKGRFTISRDNSKNTLFLQMNSLRAEDTAVYYCARDRLNYYESSGYYHYKYYGMAVWGQGTTVTVSS VL: QSVLTQPPSVSAAPGQKVTISCSGSSSNIGNNYVSWYQQLPGTAPKLLIYDNNKRPSGIPDRFSGSKSGTSATLGITGLQTGDEADYYCGTWDSWHRVVTFGGGTKLTVLG

The next lines start with the binder.

Binder | binding
anti-CGRP receptor variant 10, yeast-displayed Fab (Fab, V domains shown) VH: QVQLVESGGGVVQPGRSLRLSCAASGFFFGSYGMHWVRQAPGKGLEWVAVISFAGEIEHYVDSVKGRFTISRDNSKNTLFLQMNSLRAEDTAVYYCARDRLNYYESSGYYHYKYYGMAVWGQGTTVTVSS VL: QSVLTQPPSVSAAPGQKVTISCSGSSSNIGNNYVSWYQQLPGTAPKLLIYDNNKRPSGIPDRFSGSKSGTSATLGITGLQTGDEADYYCGTWDSRLSAVVFGGGTKLTVLG | binds
anti-CGRP receptor variant 09, yeast-displayed Fab (Fab, V domains shown) VH: QVQLVESGGGVVQPGRSLRLSCAASGFTFSSFGMHWVRQAPGKGLEWVAVISFAGEIDYYVDSVKGRFTISRDNSKNTLFLQMNSLRAEDTAVYYCARDRLNYYESSGYYHYKYYGMAVWGQGTTVTVSS VL: QSVLTQPPSVSAAPGQKVTISCSGSSSNIGNNYVSWYQQLPGTAPKLLIYDNNKRPSGIPDRFSGSKSGTSATLGITGLQTGDEADYYCGTWDSRLSAVVFGGGTKLTVLG | binds
anti-CGRP receptor variant 06, yeast-displayed Fab (Fab, V domains shown) VH: QVQLVESGGGVVQPGRSLRLSCAASGFTFSSFGMHWVRQAPGKGLEWVAVISFDGSIKYSVDSVKGRFTISRDNSKNTLFLQMNSLRAEDTAVYYCARDRLNYYESSGYYHYKYYGMAVWGQGTTVTVSS VL: QSVLTQPPSVSAAPGQKVTISCSGSYSNIGRKSVSWYQQLPGTAPKLLIYDNNKRPSGIPDRFSGSKSGTSATLGITGLQTGDEADYYCGTWDSRLSAVVFGGGTKLTVLG | binds
anti-CGRP receptor variant 02, yeast-displayed Fab (Fab, V domains shown) VH: QVQLVESGGGVVQPGRSLRLSCAASGFTFSSFGMHWVRQAPGKGLEWVAVISFDGSIKYSVDSVKGRFTISRDNSKNTLFLQMNSLRAEDTAVYYCARDRLNYYESSGYYHYKYYGMAVWGQGTTVTVSS VL: QSVLTQPPSVSAAPGQKVTISCSGSRSNIGIKAVSWYQQLPGTAPKLLIYDNNKRPSGIPDRFSGSKSGTSATLGITGLQTGDEADYYCGTWDSRLSAVVFGGGTKLTVLG | binds
anti-CGRP receptor variant 08, yeast-displayed Fab (Fab, V domains shown) VH: QVQLVESGGGVVQPGRSLRLSCAASGFTFSSFGMHWVRQAPGKGLEWVAVISFDGSIKYSVDSVKGRFTISRDNSKNTLFLQMNSLRAEDTAVYYCARDRLNYYESSGYYHYKYYGMAVWGQGTTVTVSS VL: QSVLTQPPSVSAAPGQKVTISCSGSYSNIGWWPVSWYQQLPGTAPKLLIYDNNKRPSGIPDRFSGSKSGTSATLGITGLQTGDEADYYCGTWDSRLSAVVFGGGTKLTVLG | binds
anti-CGRP receptor variant 04, yeast-displayed Fab (Fab, V domains shown) VH: QVQLVESGGGVVQPGRSLRLSCAASGFTFSSFGMHWVRQAPGKGLEWVAVISFDGSIKYSVDSVKGRFTISRDNSKNTLFLQMNSLRAEDTAVYYCARDRLNYYRSFGYYGYHYYGMAVWGQGTTVTVSS VL: QSVLTQPPSVSAAPGQKVTISCSGSSSNIGNNYVSWYQQLPGTAPKLLIYDNNKRPSGIPDRFSGSKSGTSATLGITGLQTGDEADYYCGTWDSRLSAVVFGGGTKLTVLG | binds
anti-CGRP receptor variant 07, yeast-displayed Fab (Fab, V domains shown) VH: QVQLVESGGGVVQPGRSLRLSCAASGFYFMTYGMHWVRQAPGKGLEWVAVISFDGSIKYSVDSVKGRFTISRDNSKNTLFLQMNSLRAEDTAVYYCARDRLNYYESSGYYHYKYYGMAVWGQGTTVTVSS VL: QSVLTQPPSVSAAPGQKVTISCSGSSSNIGNNYVSWYQQLPGTAPKLLIYDNNKRPSGIPDRFSGSKSGTSATLGITGLQTGDEADYYCGTWDSRLSAVVFGGGTKLTVLG | binds
anti-CGRP receptor variant 05, yeast-displayed Fab (Fab, V domains shown) VH: QVQLVESGGGVVQPGRSLRLSCAASGFTFSSFGMHWVRQAPGKGLEWVAVISFDGSIKYSVDSVKGRFTISRDNSKNTLFLQMNSLRAEDTAVYYCARDRLNYYESSGYYHYKYYGMAVWGQGTTVTVSS VL: QSVLTQPPSVSAAPGQKVTISCSGSFSNIGRSTVSWYQQLPGTAPKLLIYDNRWRAGGIPDRFSGSKSGTSATLGITGLQTGDEADYYCGTWDYQWKAVVFGGGTKLTVLG | binds
anti-CGRP receptor variant 01, yeast-displayed Fab (Fab, V domains shown) VH: QVQLVESGGGVVQPGRSLRLSCAASGFTFSSFGMHWVRQAPGKGLEWVAVISFDGSIKYSVDSVKGRFTISRDNSKNTLFLQMNSLRAEDTAVYYCARDRLNYYESSGYYHYKYYGMAVWGQGTTVTVSS VL: QSVLTQPPSVSAAPGQKVTISCSGSYSNIGRYSVSWYQQLPGTAPKLLIYDNNKRPSGIPDRFSGSKSGTSATLGITGLQTGDEADYYCGTWDSRLSAVVFGGGTKLTVLG | binds
